pIC50: −log10 of the molar value. The structures given here were assigned with low confidence; some may be wrong.

Protein sequences, listed by entry. Tags and fused reporters are not part of them.
UniProt Q9Y2I7, whole entry S696N/L932S/Q995L/T998S/S1033A/Q1183K: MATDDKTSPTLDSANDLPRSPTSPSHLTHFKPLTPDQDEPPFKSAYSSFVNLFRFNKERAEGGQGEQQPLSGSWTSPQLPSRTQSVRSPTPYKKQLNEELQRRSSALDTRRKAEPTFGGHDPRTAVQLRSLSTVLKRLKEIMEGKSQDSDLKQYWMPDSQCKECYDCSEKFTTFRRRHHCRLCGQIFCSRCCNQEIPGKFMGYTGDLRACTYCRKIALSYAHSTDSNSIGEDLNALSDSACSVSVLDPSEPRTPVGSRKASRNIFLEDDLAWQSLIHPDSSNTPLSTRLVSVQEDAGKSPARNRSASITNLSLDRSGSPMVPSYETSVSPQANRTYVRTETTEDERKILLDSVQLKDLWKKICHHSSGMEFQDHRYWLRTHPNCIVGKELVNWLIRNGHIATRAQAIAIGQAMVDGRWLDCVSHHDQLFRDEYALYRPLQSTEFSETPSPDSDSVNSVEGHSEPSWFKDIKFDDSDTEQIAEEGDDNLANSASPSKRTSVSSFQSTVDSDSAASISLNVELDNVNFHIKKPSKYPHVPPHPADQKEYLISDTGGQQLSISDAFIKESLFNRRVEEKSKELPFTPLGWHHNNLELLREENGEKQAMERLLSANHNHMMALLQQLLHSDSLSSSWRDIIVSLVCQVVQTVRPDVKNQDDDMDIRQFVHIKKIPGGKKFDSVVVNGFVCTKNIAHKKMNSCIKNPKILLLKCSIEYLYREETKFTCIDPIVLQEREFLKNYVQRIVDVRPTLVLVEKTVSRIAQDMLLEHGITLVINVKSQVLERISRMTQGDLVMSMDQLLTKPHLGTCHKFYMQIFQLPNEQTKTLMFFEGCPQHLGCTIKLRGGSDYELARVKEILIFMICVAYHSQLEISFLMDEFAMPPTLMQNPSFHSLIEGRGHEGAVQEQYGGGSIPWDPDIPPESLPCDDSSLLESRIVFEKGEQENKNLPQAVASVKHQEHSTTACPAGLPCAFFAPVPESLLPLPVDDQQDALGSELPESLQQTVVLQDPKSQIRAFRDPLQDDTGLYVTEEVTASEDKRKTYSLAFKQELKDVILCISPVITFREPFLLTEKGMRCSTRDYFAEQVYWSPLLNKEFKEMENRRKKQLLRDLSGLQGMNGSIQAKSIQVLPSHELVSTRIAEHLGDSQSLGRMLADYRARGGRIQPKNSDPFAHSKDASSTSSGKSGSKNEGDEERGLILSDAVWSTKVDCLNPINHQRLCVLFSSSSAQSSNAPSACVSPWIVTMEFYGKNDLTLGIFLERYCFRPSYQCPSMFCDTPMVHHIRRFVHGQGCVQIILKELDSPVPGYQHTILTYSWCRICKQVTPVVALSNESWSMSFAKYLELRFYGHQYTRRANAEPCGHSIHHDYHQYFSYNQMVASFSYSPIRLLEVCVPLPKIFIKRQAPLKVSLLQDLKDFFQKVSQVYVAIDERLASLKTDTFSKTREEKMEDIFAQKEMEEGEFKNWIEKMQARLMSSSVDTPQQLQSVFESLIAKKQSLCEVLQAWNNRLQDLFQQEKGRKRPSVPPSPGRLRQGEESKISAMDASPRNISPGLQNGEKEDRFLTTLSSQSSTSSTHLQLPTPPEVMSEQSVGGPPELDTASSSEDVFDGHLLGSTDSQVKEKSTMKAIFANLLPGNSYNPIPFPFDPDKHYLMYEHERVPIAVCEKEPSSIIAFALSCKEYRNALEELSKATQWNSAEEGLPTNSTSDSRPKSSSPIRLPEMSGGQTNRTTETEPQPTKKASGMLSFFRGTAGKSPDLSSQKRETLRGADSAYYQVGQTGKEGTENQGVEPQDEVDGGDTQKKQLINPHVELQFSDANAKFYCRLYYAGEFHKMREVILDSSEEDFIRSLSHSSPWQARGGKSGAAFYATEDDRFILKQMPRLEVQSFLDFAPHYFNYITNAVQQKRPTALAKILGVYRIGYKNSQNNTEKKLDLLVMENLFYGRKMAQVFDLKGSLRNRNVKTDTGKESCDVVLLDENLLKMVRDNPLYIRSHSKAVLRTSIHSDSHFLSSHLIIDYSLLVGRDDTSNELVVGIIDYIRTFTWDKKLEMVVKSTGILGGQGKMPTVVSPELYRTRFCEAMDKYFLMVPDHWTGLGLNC

What is called pIC50 is the negative decadic logarithm of the IC50, by convention in mol/L.

The assay has as its target full-length human PIKFYVE (GST-PIKFYVE) (Homo sapiens, UniProt Q9Y2I7, L932S/Q1183K/Q995L/S1033A/S696N/T998S). The assay is described as follows: PIKfyve biochemical assay (ADP-Glo Kinase assay, Carna Biosciences). The following applies: read-out: hPIKfyve IC50. (ADP-Glo first removes unused ATP, then detects ADP through luciferase.)

Regarding `Fc1cccc(N2CCc3c(OCc4cccnc4)nc(N4CCOCC4)nc32)c1`, the pIC50 was 7.00 to 8.00.

Values taken from US20230271965A1, “BICYCLIC HETEROARENES AND METHODS OF THEIR USE” (Kineta, Inc., priority 2020, published 2023).
